# Test results published in PubChem BioAssay AID504834 (National Center for Advancing Translational Sciences (NCATS), 2011).
# About 22,000 (6.9%) of roughly 320,000 compounds were called active. The inconclusive results got no clear call from the source; some entries with a clear call stand among them for comparison. Calls come from the whole dose curve; as a rule, active = well fitted inhibition curve with a large enough effect; inconclusive = small, poorly fitted or top-dose-only effect, or another doubt; inactive = no such curve, though single readings can be large or run the other way. A potency beside an inconclusive call is a rough fit, not a confirmed value.
# Assay: Primary qHTS for delayed death inhibitors of the malarial parasite plastid, 96 hour incubation
# Details: P. falciparum luciferase reporter growth; series mostly up to 28.7 µM
# Method in brief: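 96 h incubation, 37 C, 5% CO2, of luciferase-reporter P. falciparum-infected RBCs (2% hematocrit, 0.05% parasitemia final) with test compounds; endpoint luminescence.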
# % is set by controls: 0 for no effect and ±100 for the full control effect; potency is the fitted concentration of half-maximal effect.
SMILES,Potency,"activity change, negative = inhibition"
Cc1nn(Cc2ccccc2Cl)c2sc(C(=O)NCCCn3ccnc3)cc12,"inconclusive: 13.1 µM [inhibitor, single point]",–
O=C(NCc1cccnc1)Nc1cccc(NC(=O)NCc2cccnc2)c1F,inactive,–
O=C(/C=C/c1ccccc1)NC1CC2CCCC(C1)N2Cc1ccccc1 (stereo not given),active: 2.33 µM,–
CO/N=C(\c1nonc1N)N1CCN(c2ccc([N+](=O)[O-])cc2Cl)CC1,"inconclusive: 18.5 µM [inhibitor, single point]",–
CC(C)c1ccc(NC(=O)CSc2nc3ncccc3[nH]2)cc1,inactive,–
CCN(CC)CCOC(c1ccccc1)c1ccc(C)cc1 (stereo not given),"inconclusive: 18.5 µM [inhibitor, single point]",–
Cc1cccc(C)c1NC1=NCCCCS1,inactive,–
O=C(CN1CCSCC1)N/N=C/c1ccc(F)cc1,"inconclusive: 18.5 µM [inhibitor, single point]",–
CC[N+](C)(CC)CCC[n+]1c(-c2ccccc2)c2cc(N)ccc2c2ccc(N)cc21,active: 0.233 µM,–
O=C(NCCNS(=O)(=O)c1cccc(C(F)(F)F)c1)c1cc(OCC(F)(F)F)ccc1OCC(F)(F)F,"inconclusive: 1.47 µM [inhibitor, full curve]",–
COc1ccc(N2CCN(S(=O)(=O)CCNC(=O)COc3ccccc3C)CC2)cc1,inactive,–
CN(CC(=O)Nc1cccc(F)c1)C(=O)c1cccnc1Sc1ccccc1Cl,inactive,–
COc1ccccc1N1CCN(C2CCCN(C(=O)c3cscn3)C2)CC1 (stereo not given),"inconclusive: 18.5 µM [inhibitor, single point]",–
Cc1ccc(OCC(=O)NCCO)c(Br)c1,"inconclusive: 10.4 µM [inhibitor, single point]",–
COc1ccccc1C(=O)C1CCCN(C(=O)c2cccc(Cn3cccn3)c2)C1 (stereo not given),"inconclusive: 18.5 µM [inhibitor, single point]",–
COc1cc(/C=N/NC(=O)c2cccc(S(=O)(=O)N3CCOCC3)c2)cc(OC)c1O,inactive,–
Cc1nc(SCC(=O)c2cc3ccccc3oc2=O)c(C#N)c(C)c1C(=O)Nc1ccccc1,"inconclusive: 0.0029 µM [inhibitor, full curve, poor fit]",–
NS(=O)(=O)c1cccc(NC(=O)c2cccc(Oc3ccccc3)c2)c1,"inconclusive: 18.5 µM [inhibitor, single point]",–
Clc1ccc(-c2cn(-c3ccccc3)c3[n+]2CCS3)cc1,–,inactive: 33.6% [at 5.75 µM]
COc1ccc(Cl)cc1NC(=O)Nn1cnnc1,"inconclusive: 18.5 µM [inhibitor, single point]",–
O=c1[nH]c(=O)n(-c2ccc(F)cc2)c(O)c1C=NCCN1CCCCC1,inactive,–
NC(=O)c1ccccc1NC(=O)COc1ccc2c(c1)OCO2,"inconclusive: 2.08 µM [inhibitor, partial curve]",–
Cc1cc(N=Nc2ccc(C)c(N=Nc3cc(C)c(N)cc3N)c2)c(N)cc1N,inactive,–
CC(=O)NCCc1nc2cc(NS(=O)(=O)c3ccc(Cl)cc3)ccc2n1C,"inconclusive: 8.28 µM [inhibitor, partial curve]",–

# Four structures already listed, sorted by SMILES length, high to low.
SMILES,Potency,"activity change, negative = inhibition"
O=C(NCCNS(=O)(=O)c1cccc(C(F)(F)F)c1)c1cc(OCC(F)(F)F)ccc1OCC(F)(F)F,"inconclusive: 1.47 µM [inhibitor, full curve]",–
Cc1nc(SCC(=O)c2cc3ccccc3oc2=O)c(C#N)c(C)c1C(=O)Nc1ccccc1,"inconclusive: 0.0029 µM [inhibitor, full curve, poor fit]",–
CC(C)c1ccc(NC(=O)CSc2nc3ncccc3[nH]2)cc1,inactive,–
Cc1ccc(OCC(=O)NCCO)c(Br)c1,"inconclusive: 10.4 µM [inhibitor, single point]",–

# Later entries.

SMILES,Potency,"activity change, negative = inhibition"
COc1ccccc1N1CCN(C(=O)c2ccc(N3CCCC3=O)cc2)CC1,"inconclusive: 10.4 µM [inhibitor, single point]",–
C[C@H]1CC[C@@]2(C)[C@@H](CC[C@@H]3[C@@H]2CC[C@]2(C)[C@@H](O)CC[C@@H]32)C1,"inconclusive: 0.0738 µM [inhibitor, full curve, poor fit]",–
O=C(Nc1ccccc1C(F)(F)F)N1CCN(c2ccc3nnc(-c4ccc(F)cc4)n3n2)CC1,"inconclusive: 16.5 µM [inhibitor, partial curve, poor fit]",–
COc1ccc(NC(=O)c2cccs2)c([N+](=O)[O-])c1,inactive,–
COc1cc(/C=C2/C(=O)c3cccc([N+](=O)[O-])c3C2=O)c(Br)cc1O,inactive,–
CC1Cc2cc(/C(O)=C3/C(=O)C(=O)N(CCCN4CCOCC4)C3c3ccc(C(C)C)cc3)ccc2O1 (stereo not given),"inconclusive: 18.5 µM [inhibitor, single point]",–
CSc1ccc(/C=C(\NC(=O)c2ccco2)C(=O)N2CCCCC2)cc1,inactive,–
COc1ccc(OC)c(NC(=O)CSc2nc3ccccc3c(=O)n2CC2CCCO2)c1 (stereo not given),"inconclusive: 2.33 µM [inhibitor, full curve, poor fit]",–
CC(C)(C)NCC(O)COc1ccccc1C(=O)CCc1ccccc1 (stereo not given),"inconclusive: 2.33 µM [inhibitor, full curve, poor fit]",–
C/C(=N\N(Cc1ccccc1)c1ccccc1)c1ccncc1,"inconclusive: 18.5 µM [inhibitor, single point]",–
COc1cc(C2C(C#N)=C(N)Oc3cc(O)ccc32)cc(OC)c1OC (stereo not given),"inconclusive: 4.15 µM [inhibitor, single point]",–
CCC(C)(C)c1ccc(OCC(=O)Nc2ccncc2)cc1,"inconclusive: 18.5 µM [inhibitor, single point]",–
O=C(O)CCCN1C(=O)C2C3CC(C2C1=O)C1C(c2ccccc2)c2sc(=O)n(-c4ccccc4)c2SC31 (stereo not given),"inconclusive: 0.0083 µM [inhibitor, full curve, poor fit]",–
CN1CC=C2C(C#N)=C(N)C(C#N)(C#N)C(CCc3ccccc3)C2C1 (stereo not given),active: 7.38 µM,–
CC(C)CCNc1nc(-c2ccco2)c2c(c1C#N)CCCC2,active: 13.1 µM,–
O=C(NC1CCCCC1)c1ccc(S(=O)(=O)N2CCCCC2)cc1,inactive,–
CCCCN(C(=O)c1cc2c(s1)CCC2)c1c(N)n(CCC)c(=O)[nH]c1=O,inactive,–
CCCNS(=O)(=O)c1ccc(CCC(=O)NCCc2ccc(OC)c(OC)c2)cc1,inactive,–
COc1ccc(N(CC(=O)NCCSC2CCCCC2)S(C)(=O)=O)c(OC)c1,"inconclusive: 18.5 µM [inhibitor, single point]",–
COc1cc(CN(C(=S)NCC(=O)N2CCCC2)C2CCCC2)cc(OC)c1OC,"inconclusive: 18.5 µM [inhibitor, single point]",–
COc1ccccc1N1CCN(C(c2cccs2)C(C)NC(=O)c2ccncc2)CC1 (stereo not given),"inconclusive: 16.5 µM [inhibitor, single point]",–
Cc1ccc(C2CC(c3ccccc3)=NN2C(=O)CSc2nnc(-c3ccc(Cl)cc3)o2)o1 (stereo not given),inactive,–
COC(=O)C(C)Sc1nnc2n(-c3cccc(C)c3)c(=O)c3c4c(sc3n12)CCCC4 (stereo not given),active: 11.7 µM,–

SMILES,Potency,"activity change, negative = inhibition"
COc1ccc(-c2cc(C3CCNCC3)[nH]n2)cc1,active: 2.33 µM,–
Clc1ccc(CN2CCC(c3nc4ccc(Cl)cc4[nH]3)CC2)cc1,"inconclusive: 0.928 µM [inhibitor, partial curve]",–
COc1ccc(NC(=O)CC2Oc3ccccc3NC2=O)cc1 (stereo not given),"inconclusive: 18.5 µM [inhibitor, single point]",–
CSc1nsc(SCC(=O)Nc2ccc(F)cc2)n1,inactive,–
c1ccc(COc2ccc(Oc3nc(N4CCCCC4)nc(N4CCOCC4)n3)nn2)cc1,"inconclusive: 4.65 µM [inhibitor, partial curve]",–
CCOc1ccc(NC(=O)CN2C(=O)COc3ccc(S(=O)(=O)N4CCCC4)cc32)cc1,"inconclusive: 18.5 µM [inhibitor, single point]",–
Cc1cccc(Nc2nc(N)c([N+](=O)[O-])c(N3CC(C)OC(C)C3)n2)c1 (stereo not given),"inconclusive: 8.28 µM [inhibitor, partial curve]",–
CCOc1ccc(OCC)c(NC(=O)C2CCN(c3cnccn3)CC2)c1,"inconclusive: 14.7 µM [inhibitor, single point]",–
COC(=O)CN1C(=O)COc2ccc(S(=O)(=O)N3CCOCC3)cc21,active: 9.28 µM,–
COc1ccccc1-c1cc(C(=O)N/N=C/c2ccc(C)o2)c2ccccc2n1,"inconclusive: 18.5 µM [inhibitor, single point]",–
COc1cccc(NC(=O)COC(=O)CNC(=O)C2CCCCC2)c1,inactive,–
O=C(c1ccc(S(=O)(=O)Nc2ccccc2)cc1)N1CCCC(C(F)(F)F)C1 (stereo not given),"inconclusive: 18.5 µM [inhibitor, single point]",–
CCOc1ccc(NC(=O)Cn2nnc(-c3ccc(C(N)=O)cc3)n2)cc1S(=O)(=O)N1CCCC1,inactive,–
CC(C)C(=O)NNC(=O)CSc1nnnn1C(C)C,"inconclusive: 0.185 µM [inhibitor, full curve, poor fit]",–
Cc1cc(C)cc(N2C(=O)C3NN=C(C(=O)OCc4ccccc4)C3C2=O)c1 (stereo not given),"inconclusive: 16.5 µM [inhibitor, partial curve, poor fit]",–
COc1ccccc1OC(=O)c1cc2ccccc2oc1=O,"inconclusive: 10.4 µM [inhibitor, single point]",–
COc1cc(C2CC(c3cccs3)=NN2C(=O)CCl)ccc1OC(F)F (stereo not given),"inconclusive: 10.4 µM [inhibitor, partial curve, poor fit]",–
COCCNC(=O)C(=O)c1cc(C)n(-c2ccc([N+](=O)[O-])cc2)c1C,inactive,–
O=C(O)CCCCCN1C(=O)CSC1=S,"inconclusive: 4.65 µM [inhibitor, partial curve, poor fit]",–
O=C(Nc1nnc(S(=O)(=O)N2CCOCC2)s1)c1ccc(F)cc1,"inconclusive: 18.5 µM [inhibitor, single point]",–
O=C(Nc1nc2c(s1)CCCC2)c1cc(-c2ccc3c(c2)OCO3)nc2ccccc12,inactive,–
CCCCOc1ccc(/C(O)=C(\C#N)c2nc3ccccc3[nH]2)cc1,"inconclusive: 11.7 µM [inhibitor, single point]",–
